Drawing on article PMC3229523, “Identification of Lactoferricin B Intracellular Targets Using an Escherichia coli Proteome Chip” (PLoS ONE, 2011), this text covers binding for 8 molecules.

Sequences and labels used below:
T1: DyLight 549-labeled Lactoferricin B (UniProt P24627)
T1 sequence (peptide, DyLight 549 (NHS ester labelling, sites not stated)): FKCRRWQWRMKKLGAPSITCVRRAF

B1: phosphoenolpyruvate carboxylase (enzyme, UniProt P00864 1-883)
chain: MNEQYSALRSNVSMLGKVLGETIKDALGEHILERVETIRKLSKSSRAGNDANRQELLTTLQNLSNDELLPVARAFSQFLNLANTAEQYHSISPKGEAASNPEVIARTLRKLKNQPELSEDTIKKAVESLSLELVLTAHPTEITRRTLIHKMVEVNACLKQLDNKDIADYEHNQLMRRLRQLIAQSWHTDEIRKLRPSPVDEAKWGFAVVENSLWQGVPNYLRELNEQLEENLGYKLPVEFVPVRFTSWMGGDRDGNPNVTADITRHVLLLSRWKATDLFLKDIQVLVSELSMVEATPELLALVGEEGAAEPYRYLMKNLRSRLMATQAWLEARLKGEELPKPEGLLTQNEELWEPLYACYQSLQACGMGIIANGDLLDTLRRVKCFGVPLVRIDIRQESTRHTEALGELTRYLGIGDYESWSEADKQAFLIRELNSKRPLLPRNWQPSAETREVLDTCQVIAEAPQGSIAAYVISMAKTPSDVLAVHLLLKEAGIGFAMPVAPLFETLDDLNNANDVMTQLLNIDWYRGLIQGKQMVMIGYSDSAKDAGVMAASWAQYQAQDALIKTCEKAGIELTLFHGRGGSIGRGGAPAHAALLSQPPGSLKGGLRVTEQGEMIRFKYGLPEITVSSLSLYTGAILEANLLPPPEPKESWRRIMDELSVISCDVYRGYVRENKDFVPYFRSATPEQELGKLPLGSRPAKRRPTGGVESLRAIPWIFAWTQNRLMLPAWLGAGTALQKVVEDGKQSELEAMCRDWPFFSTRLGMLEMVFAKADLWLAEYYDQRLVDKALWPLGKELRNLQEEDIKVVLAIANDSHLMADLPWIAESIQLRNIYTDPLNVLQAELLHRSRQAEKEGQEPDPRVEQALMVTIAGIAAGMRNTG
B2: NrdD (protein, UniProt P28903 1-712)
chain: MTPHVMKRDGCKVPFKSERIKEAILRAAKAAEVDDADYCATVAAVVSEQMQGRNQVDINEIQTAVENQLMSGPYKQLARAYIEYRHDRDIEREKRGRLNQEIRGLVEQTNASLLNENANKDSKVIPTQRDLLAGIVAKHYARQHLLPRDVVQAHERGDIHYHDLDYSPFFPMFNCMLIDLKGMLTQGFKMGNAEIEPPKSISTATAVTAQIIAQVASHIYGGTTINRIDEVLAPFVTASYNKHRKTAEEWNIPDAEGYANSRTIKECYDAFQSLEYEVNTLHTANGQTPFVTFGFGLGTSWESRLIQESILRNRIAGLGKNRKTAVFPKLVFAIRDGLNHKKGDPNYDIKQLALECASKRMYPDILNYDQVVKVTGSFKTPMGCRSFLGVWENENGEQIHDGRNNLGVISLNLPRIALEAKGDEATFWKLLDERLVLARKALMTRIARLEGVKARVAPILYMEGACGVRLNADDDVSEIFKNGRASISLGYIGIHETINALFGGEHVYDNEQLRAKGIAIVERLRQAVDQWKEETGYGFSLYSTPSENLCDRFCRLDTAEFGVVPGVTDKGYYTNSFHLDVEKKVNPYDKIDFEAPYPPLANGGFICYGEYPNIQHNLKALEDVWDYSYQHVPYYGTNTPIDECYECGFTGEFECTSKGFTCPKCGNHDASRVSVTRRVCGYLGSPDARPFNAGKQEEVKRRVKHLGNGQIG
B3: YdaU (protein, UniProt P76065 1-285)
chain: MLFVLILSHRAASYGAIMAALPYMQLYIADYLADTMHLSAEEHGAYLLLMFNYWQTGKPIPKNRLAKIARLTNERWADVEPSLQEFFCDNGEEWVHLRIEEDLASVREKLTKKSAAGKASVQARRSRKEADVQTKQERNLTGVQTDVEVVFEHDVNTKATNKDTDKDLKTDPPLNPPRGNRGVKKFDPLDITLPNWISVSLWREWVEFRQALRKPIRTEQGANGAIRELEKFRQQGFSPEQVIRHSIANEYQGLFAPKGVRPETLLRQVNTVSLPDSAIPPGFRG
B4: Adi (protein, UniProt P28629 1-755)
chain: MKVLIVESEFLHQDTWVGNAVERLADALSQQNVTVIKSTSFDDGFAILSSNEAIDCLMFSYQMEHPDEHQNVRQLIGKLHERQQNVPVFLLGDREKALAAMDRDLLELVDEFAWILEDTADFIAGRAVAAMTRYRQQLLPPLFSALMKYSDIHEYSWAAPGHQGGVGFTKTPAGRFYHDYYGENLFRTDMGIERTSLGSLLDHTGAFGESEKYAARVFGADRSWSVVVGTSGSNRTIMQACMTDNDVVVVDRNCHKSIEQGLMLTGAKPVYMVPSRNRYGIIGPIYPQEMQPETLQKKISESPLTKDKAGQKPSYCVVTNCTYDGVCYNAKEAQDLLEKTSDRLHFDEAWYGYARFNPIYADHYAMRGEPGDHNGPTVFATHSTHKLLNALSQASYIHVREGRGAINFSRFNQAYMMHATTSPLYAICASNDVAVSMMDGNSGLSLTQEVIDEAVDFRQAMARLYKEFTADGSWFFKPWNKEVVTDPQTGKTYDFADAPTKLLTTVQDCWVMHPGESWHGFKDIPDNWSMLDPIKVSILAPGMGEDGELEETGVPAALVTAWLGRHGIVPTRTTDFQIMFLFSMGVTRGKWGTLVNTLCSFKRHYDANTPLAQVMPELVEQYPDTYANMGIHDLGDTMFAWLKENNPGARLNEAYSGLPVAEVTPREAYNAIVDNNVELVSIENLPGRIAANSVIPYPPGIPMLLSGENFGDKNSPQVSYLRSLQSWDHHFPGFEHETEGTEIIDGIYHVMCVKA
B5: RecC (protein, UniProt P07648 1-1122)
chain: MLRVYHSNRLDVLEALMEFIVERERLDDPFEPEMILVQSTGMAQWLQMTLSQKFGIAANIDFPLPASFIWDMFVRVLPEIPKESAFNKQSMSWKLMTLLPQLLEREDFTLLRHYLTDDSDKRKLFQLSSKAADLFDQYLVYRPDWLAQWETGHLVEGLGEAQAWQAPLWKALVEYTHQLGQPRWHRANLYQRFIETLESATTCPPGLPSRVFICGISALPPVYLQALQALGKHIEIHLLFTNPCRYYWGDIKDPAYLAKLLTRQRRHSFEDRELPLFRDSENAGQLFNSDGEQDVGNPLLASWGKLGRDYIYLLSDLESSQELDAFVDVTPDNLLHNIQSDILELENRAVAGVNIEEFSRSDNKRPLDPLDSSITFHVCHSPQREVEVLHDRLLAMLEEDPTLTPRDIIVMVADIDSYSPFIQAVFGSAPADRYLPYAISDRRARQSHPVLEAFISLLSLPDSRFVSEDVLALLDVPVLAARFDITEEGLRYLRQWVNESGIRWGIDDDNVRELELPATGQHTWRFGLTRMLLGYAMESAQGEWQSVLPYDESSGLIAELVGHLASLLMQLNIWRRGLAQERPLEEWLPVCRDMLNAFFLPDAETEAAMTLIEQQWQAIIAEGLGAQYGDAVPLSLLRDELAQRLDQERISQRFLAGPVNICTLMPMRSIPFKVVCLLGMNDGVYPRQLAPLGFDLMSQKPKRGDRSRRDDDRYLFLEALISAQQKLYISYIGRSIQDNSERFPSVLVQELIDYIGQSHYLPGDEALNCDESEARVKAHLTCLHTRMPFDPQNYQPGERQSYAREWLPAASQAGKAHSEFVQPLPFTLPETVPLETLQRFWAHPVRAFFQMRLQVNFRTEDSEIPDTEPFILEGLSRYQINQQLLNALVEQDDAERLFRRFRAAGDLPYGAFGEIFWETQCQEMQQLADRVIACRQPGQSMEIDLACNGVQITGWLPQVQPDGLLRWRPSLLSVAQGMQLWLEHLVYCASGGNGESRLFLRKDGEWRFPPLAAEQALHYLSQLIEGYREGMSAPLLVLPESGGAWLKTCYDAQNDAMLDDDSTLQKARTKFLQAYEGNMMVRGEGDDIWYQRLWRQLTPETMEAIVEQSQRFLLPLFRFNQS
B6: GldA (protein, UniProt P0A9S5 1-367)
chain: MDRIIQSPGKYIQGADVINRLGEYLKPLAERWLVVGDKFVLGFAQSTVEKSFKDAGLVVEIAPFGGECSQNEIDRLRGIAETAQCGAILGIGGGKTLDTAKALAHFMGVPVAIAPTIASTDAPCSALSVIYTDEGEFDRYLLLPNNPNMVIVDTKIVAGAPARLLAAGIGDALATWFEARACSRSGATTMAGGKCTQAALALAELCYNTLLEEGEKAMLAAEQHVVTPALERVIEANTYLSGVGFESGGLAAAHAVHNGLTAIPDAHHYYHGEKVAFGTLTQLVLENAPVEEIETVAALSHAVGLPITLAQLDIKEDVPAKMRIVAEAACAEGETIHNMPGGATPDQVYAALLVADQYGQRFLQEWE
B7: YnhE (protein, UniProt P77522 1-495)
chain: MSRNTEATDDVKTWTGGPLNYKEGFFTQLATDELAKGINEEVVRAISAKRNEPEWMLEFRLNAYRAWLEMEEPHWLKAHYDKLNYQDYSYYSAPSCGNCDDTCASEPGAVQQTGANAFLSKEVEAAFEQLGVPVREGKEVAVDAIFDSVSVATTYREKLAEQGIIFCSFGEAIHDHPELVRKYLGTVVPGNDNFFAALNAAVASDGTFIYVPKGVRCPMELSTYFRINAEKTGQFERTILVADEDSYVSYIEGCSAPVRDSYQLHAAVVEVIIHKNAEVKYSTVQNWFPGDNNTGGILNFVTKRALCEGENSKMSWTQSETGSAITWKYPSCILRGDNSIGEFYSVALTSGHQQADTGTKMIHIGKNTKSTIISKGISAGHSQNSYRGLVKIMPTATNARNFTQCDSMLIGANCGAHTFPYVECRNNSAQLEHEATTSRIGEDQLFYCLQRGISEEDAISMIVNGFCKDVFSELPLEFAVEAQKLLAISLEHSVG
B8: YjbM (protein, UniProt P32694 1-235)
chain: MWVNKYIDDCTDEDLNDRDFIASVVDRAIFHFAINSICNPGDNKDAMPIEQCTFDVETKNDLPSTVQLFYEESKDNEPLANIHFQAIGSGFLTFVNACQEHDDNSLKLFASLLISLSYSSAYADLSETVYINENNESYLKAQFEKLSQRDMKKYLGEMKRLADGGEMNFDGYLDKMSHLVNEGTLDPDILSKMRDAAPQLISFAKSFDPTSKEEIKILTDTSKLIYDLFGVKSEK

Results are given in words; binding and its absence hold for the method and conditions named. Some entries that bind do so weakly or less than the wild type.

The test deals with T1, DyLight 549-labeled Lactoferricin B. The test can be described thus: fluorescence polarisation; data not shown; DyLight 549-labeled LfcinB with the tested proteins, compared with BSA; both purified.
For the molecule B1, the binding result was “binds”.
For the molecule B2, the binding result is “binds”.
With B3, the binding entry is reported as “binds”.
As for B4, the entry is “binds”; as for B5, “binds”.
The result for B6 reads “binds”.
In the case of B7, the binding entry is listed as “binds”.
The result for B8 reads “binds”.
